Results are given in words; binding and its absence hold for the method and conditions named. In cells and extracts the contact can be indirect. A yes stands for co-enrichment or nearness to the bait. Other partners may have been found. No binding means not detected with the bait. For some assays here: Tags and fused reporters may be left off the sequences shown.
Tests used:
[1] = target: AGO2 fused with C-terminal Flag- and HA-epitope tags (e-AGO2), Q9UKV8; assay: affinity purification with mass spectrometry; conditions: remark: other sources report otherwise
[2] = target: AGO2 fused with C-terminal Flag- and HA-epitope tags (e-AGO2) (UniProt Q9UKV8); assay: affinity purification with mass spectrometry

Amino acid sequences for entries named in this document (tags omitted).
UniProt Q9UKV8, whole entry: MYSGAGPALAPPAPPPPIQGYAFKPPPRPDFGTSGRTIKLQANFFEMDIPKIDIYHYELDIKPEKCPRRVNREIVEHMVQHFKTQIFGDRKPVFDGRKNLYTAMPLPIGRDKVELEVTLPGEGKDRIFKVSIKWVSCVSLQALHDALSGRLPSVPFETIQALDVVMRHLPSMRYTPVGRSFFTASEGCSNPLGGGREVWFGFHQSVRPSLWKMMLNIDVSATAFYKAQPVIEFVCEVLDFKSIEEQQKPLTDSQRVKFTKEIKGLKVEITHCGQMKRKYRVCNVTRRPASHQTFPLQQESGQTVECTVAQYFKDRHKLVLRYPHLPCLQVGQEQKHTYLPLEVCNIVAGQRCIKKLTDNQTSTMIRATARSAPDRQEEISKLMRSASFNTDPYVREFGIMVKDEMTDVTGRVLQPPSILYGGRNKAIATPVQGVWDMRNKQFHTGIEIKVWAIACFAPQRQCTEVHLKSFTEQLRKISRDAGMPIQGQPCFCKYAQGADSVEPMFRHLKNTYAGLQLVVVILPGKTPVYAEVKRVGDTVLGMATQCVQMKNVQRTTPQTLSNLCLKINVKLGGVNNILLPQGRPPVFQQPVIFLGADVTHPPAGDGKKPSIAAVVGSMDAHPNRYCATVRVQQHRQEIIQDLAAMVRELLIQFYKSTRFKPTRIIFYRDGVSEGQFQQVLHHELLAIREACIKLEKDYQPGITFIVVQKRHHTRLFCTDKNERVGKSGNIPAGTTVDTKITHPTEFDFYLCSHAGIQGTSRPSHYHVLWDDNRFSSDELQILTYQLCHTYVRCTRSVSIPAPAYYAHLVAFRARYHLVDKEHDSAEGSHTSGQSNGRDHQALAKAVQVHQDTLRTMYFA

B1: FUS, P35637 1-526 (protein)
chain: MASNDYTQQATQSYGAYPTQPGQGYSQQSSQPYGQQSYSGYSQSTDTSGYGQSSYSSYGQSQNTGYGTQSTPQGYGSTGGYGSSQSSQSSYGQQSSYPGYGQQPAPSSTSGSYGSSSQSSSYGQPQSGSYSQQPSYGGQQQSYGQQQSYNPPQGYGQQNQYNSSSGGGGGGGGGGNYGQDQSSMSSGGGSGGGYGNQDQSGGGGSGGYGQQDRGGRGRGGSGGGGGGGGGGYNRSSGGYEPRGRGGGRGGRGGMGGSDRGGFNKFGGPRDQGSRHDSEQDNSDNNTIFVQGLGENVTIESVADYFKQIGIIKTNKKTGQPMINLYTDRETGKLKGEATVSFDDPPSAKAAIDWFDGKEFSGNPIKVSFATRRADFNRGGGNGRGGRGRGGPMGRGGYGGGGSGGGGRGGFPSGGGGGGGQQRAGDWKCPNPTCENMNFSWRNECNQCKAPKPDGPGGGPGGSHMGGNYGDDRRGGRGGYDRGGYRGRGGDRGGFRGGRGGGDRGGFGPGKMDSRGEHRQDRRERPY
With B1 the binding [1] was “no binding”.

B2: RBM14 (protein, UniProt Q96PK6 1-669)
chain: MKIFVGNVDGADTTPEELAALFAPYGTVMSCAVMKQFAFVHMRENAGALRAIEALHGHELRPGRALVVEMSRPRPLNTWKIFVGNVSAACTSQELRSLFERRGRVIECDVVKDYAFVHMEKEADAKAAIAQLNGKEVKGKRINVELSTKGQKKGPGLAVQSGDKTKKPGAGDTAFPGTGGFSATFDYQQAFGNSTGGFDGQARQPTPPFFGRDRSPLRRSPPRASYVAPLTAQPATYRAQPSVSLGAAYRAQPSASLGVGYRTQPMTAQAASYRAQPSVSLGAPYRGQLASPSSQSAAASSLGPYGGAQPSASALSSYGGQAAAASSLNSYGAQGSSLASYGNQPSSYGAQAASSYGVRAAASSYNTQGAASSLGSYGAQAASYGAQSAASSLAYGAQAASYNAQPSASYNAQSAPYAAQQAASYSSQPAAYVAQPATAAAYASQPAAYAAQATTPMAGSYGAQPVVQTQLNSYGAQASMGLSGSYGAQSAAAATGSYGAAAAYGAQPSATLAAPYRTQSSASLAASYAAQQHPQAAASYRGQPGNAYDGAGQPSAAYLSMSQGAVANANSTPPPYERTRLSPPRASYDDPYKKAVAMSKRYGSDRRLAELSDYRRLSESQLSFRRSPTKSSLDYRRLPDAHSDYARYSGSYNDYLRAAQMHSGYQRRM
With B2 the binding [2] was “no binding”.

Source: article doi:10.1101/2025.01.26.634929
